Measurements published in patent US6468971B1, “Maintaining kidney function during surgery or trauma” (Board of Supervisors of Louisiana State University and …, priority 1998, dated 2002).

System: isoflurane-anesthetized rats under surgery
Assay: Renal response to drug given after start of surgery and isoflurane anesthesia
Format: in vivo, Sprague-Dawley rat
[1] = continuous intravenous infusion after start of surgery and isoflurane
[2] = intravenous bolus injection during isoflurane anesthesia and surgery

For NS(=O)(=O)c1cc(C(=O)O)c(NCc2ccco2)cc1Cl [furosemide], the “time urine flow rate, sodium and potassium excretion remained at high levels” value (continuous intravenous infusion) was “about 110 minutes”, the urinary potassium excretion [1] was “large increases” and the urinary sodium excretion [1] was “large increases”. For the same compound, the urinary potassium excretion [2] was “large urinary loss of sodium and potassium” and the urinary sodium excretion [2] was “large urinary loss of sodium and potassium”.
